Laboratory results from article PMC12463022.
No constants are given. Whether binding was seen depends on the method and setting. In cells and extracts the contact can be indirect. Some results given as binding are weak or reduced against the parent protein; the word gives no strength.

Protein sequences, listed by entry. Tags and fused reporters are not part of them. Lines headed by an entry give the natural chain unless they say otherwise; changes in a name come on top. Residues count along the entry.
UniProt P02763: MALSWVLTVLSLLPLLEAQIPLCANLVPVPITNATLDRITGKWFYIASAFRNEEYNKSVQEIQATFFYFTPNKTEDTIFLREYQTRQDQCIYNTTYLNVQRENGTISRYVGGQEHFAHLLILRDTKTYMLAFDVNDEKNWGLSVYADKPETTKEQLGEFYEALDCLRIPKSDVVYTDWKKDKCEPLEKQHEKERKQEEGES
52 – 167 amino acid truncation of ORM1 [ORM1(p.52to167)–Flag]: residues 52-167 of P02763
UniProt P08670: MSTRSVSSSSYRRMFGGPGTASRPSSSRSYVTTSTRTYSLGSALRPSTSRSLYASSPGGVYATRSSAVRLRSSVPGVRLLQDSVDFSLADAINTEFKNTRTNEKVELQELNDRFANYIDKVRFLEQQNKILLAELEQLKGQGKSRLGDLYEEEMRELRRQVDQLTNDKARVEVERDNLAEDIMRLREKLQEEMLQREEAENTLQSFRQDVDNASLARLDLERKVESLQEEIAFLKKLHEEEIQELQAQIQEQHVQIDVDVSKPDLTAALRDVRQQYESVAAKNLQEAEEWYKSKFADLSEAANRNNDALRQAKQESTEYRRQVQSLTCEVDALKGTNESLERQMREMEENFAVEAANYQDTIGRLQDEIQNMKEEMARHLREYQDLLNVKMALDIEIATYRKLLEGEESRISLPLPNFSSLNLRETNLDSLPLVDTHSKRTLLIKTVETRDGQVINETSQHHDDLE

Tests used:
[1] = target: 52 – 167 amino acid truncation of ORM1 [ORM1(p.52to167)–Flag] (human) (UniProt P02763); test: co-IP; C28/I2 cells; IP Lysis Buffer, primary antibody overnight at 4 °C, Protein G-Agarose 2 h, western blot
[2] = target: orosomucoid 1 (ORM1)–Flag (human) (UniProt P02763); test: as above
[3] = target: orosomucoid 1 (ORM1)–Flag (human) (UniProt P02763); test: co-IP; HEK-293T cells; IP Lysis Buffer, primary antibody overnight at 4 °C, Protein G-Agarose 2 h, western blot

binding [1]: binds
binding [2]: binds
binding [3]: binds
Substance: vimentin (VIM) (from UniProt P08670 1-466)
